According to publication doi:10.1101/2022.11.01.514535:
Substitutions are numbered along the chain they refer to. Read-outs that look alike come from different tables or passages of the source. Results are given in words; binding and its absence hold for the method and conditions named. In cells and extracts the contact can be indirect. Some results given as binding are weak or reduced against the parent protein; the word gives no strength. Sequences can lack the tags named with a protein. Values belong to the molecule of their own block, whether it stands above or below them.

The chains behind the UniProt entries cited, without tags or fusion partners. Where a name states a change or a piece, a line headed by the entry shows the natural chain unless it says otherwise.
UniProt P0DMV8, whole entry: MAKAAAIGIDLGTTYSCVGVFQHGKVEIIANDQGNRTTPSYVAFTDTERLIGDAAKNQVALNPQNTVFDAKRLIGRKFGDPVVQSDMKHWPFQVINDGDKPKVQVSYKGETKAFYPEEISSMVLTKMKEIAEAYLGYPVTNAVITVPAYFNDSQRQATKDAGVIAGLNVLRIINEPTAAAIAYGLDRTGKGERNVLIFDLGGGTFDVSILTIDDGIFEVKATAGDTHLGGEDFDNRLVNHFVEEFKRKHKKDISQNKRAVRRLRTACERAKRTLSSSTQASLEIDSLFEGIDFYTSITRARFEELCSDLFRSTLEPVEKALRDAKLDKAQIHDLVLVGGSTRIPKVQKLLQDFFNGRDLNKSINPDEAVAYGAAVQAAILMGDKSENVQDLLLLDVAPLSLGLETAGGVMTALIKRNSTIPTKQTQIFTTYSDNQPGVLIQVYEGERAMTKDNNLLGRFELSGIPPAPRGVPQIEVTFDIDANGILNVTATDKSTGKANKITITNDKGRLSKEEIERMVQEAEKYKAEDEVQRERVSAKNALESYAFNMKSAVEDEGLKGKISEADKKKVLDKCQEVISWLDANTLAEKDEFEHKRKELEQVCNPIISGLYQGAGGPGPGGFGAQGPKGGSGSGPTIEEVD
UniProt P63208, whole entry: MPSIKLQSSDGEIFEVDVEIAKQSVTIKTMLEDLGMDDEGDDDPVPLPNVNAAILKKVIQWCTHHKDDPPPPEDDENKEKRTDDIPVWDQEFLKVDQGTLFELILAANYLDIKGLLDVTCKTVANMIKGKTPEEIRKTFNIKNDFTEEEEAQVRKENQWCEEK

Columns and labels:
Assay in all cases: co-IP
[1] = target: T1, C497R-FBXL6 flag (human) (UniProt Q8N531)
T1 sequence: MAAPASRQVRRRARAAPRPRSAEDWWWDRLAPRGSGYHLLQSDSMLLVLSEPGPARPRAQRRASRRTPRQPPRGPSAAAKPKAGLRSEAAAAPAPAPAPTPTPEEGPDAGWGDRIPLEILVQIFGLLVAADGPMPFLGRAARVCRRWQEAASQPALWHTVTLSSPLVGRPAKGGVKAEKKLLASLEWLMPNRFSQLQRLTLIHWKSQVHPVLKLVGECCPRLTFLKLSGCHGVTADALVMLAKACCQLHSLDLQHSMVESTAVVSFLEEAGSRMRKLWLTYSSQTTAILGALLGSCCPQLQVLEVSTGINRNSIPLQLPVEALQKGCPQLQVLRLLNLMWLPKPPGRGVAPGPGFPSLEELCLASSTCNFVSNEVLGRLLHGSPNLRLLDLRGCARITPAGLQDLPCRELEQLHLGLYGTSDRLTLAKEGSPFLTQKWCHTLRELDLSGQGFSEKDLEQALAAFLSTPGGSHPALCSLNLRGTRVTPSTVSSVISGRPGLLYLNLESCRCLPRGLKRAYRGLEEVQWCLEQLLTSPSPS

[2] = target: T2, FBXL4-Flag (F-box/LRR-repeat protein 4) (UniProt Q9UKA2)
T2 sequence: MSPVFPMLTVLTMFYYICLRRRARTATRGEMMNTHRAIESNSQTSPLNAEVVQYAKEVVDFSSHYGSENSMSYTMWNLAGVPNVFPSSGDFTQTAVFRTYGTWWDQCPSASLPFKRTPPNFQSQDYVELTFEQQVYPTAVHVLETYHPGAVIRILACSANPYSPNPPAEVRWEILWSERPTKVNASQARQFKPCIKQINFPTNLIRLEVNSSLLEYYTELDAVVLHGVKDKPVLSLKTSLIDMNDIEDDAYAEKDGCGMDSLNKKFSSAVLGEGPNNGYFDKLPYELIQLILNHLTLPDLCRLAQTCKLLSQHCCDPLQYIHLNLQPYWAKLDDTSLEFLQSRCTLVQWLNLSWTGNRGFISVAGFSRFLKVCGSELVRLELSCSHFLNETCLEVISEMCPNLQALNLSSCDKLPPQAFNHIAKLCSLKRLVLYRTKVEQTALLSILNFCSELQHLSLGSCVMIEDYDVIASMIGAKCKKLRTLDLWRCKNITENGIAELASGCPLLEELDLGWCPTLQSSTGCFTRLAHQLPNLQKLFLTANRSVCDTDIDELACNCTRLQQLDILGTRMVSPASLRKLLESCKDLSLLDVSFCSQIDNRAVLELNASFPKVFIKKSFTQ

[3] = target: T3, FBXL6-Flag (F-box/LRR-repeat protein 6, wild type) (human) (UniProt Q8N531)
T3 sequence: T1 sequence with R497C

[4] = target: T3, FBXL6-Flag (F-box/LRR-repeat protein 6, wild type) (human); remark: listed apart in the source

Molecule: HSPA1A (heat shock protein A1A) (from UniProt P0DMV8 1-641)
binding [1]: binds | binding [2]: binds | binding [3]: binds

B2: NEMF (protein, UniProt O60524 1-1076)
chain: MKSRFSTIDLRAVLAELNASLLGMRVNNVYDVDNKTYLIRLQKPDFKATLLLESGIRIHTTEFEWPKNMMPSSFAMKCRKHLKSRRLVSAKQLGVDRIVDFQFGSDEAAYHLIIELYDRGNIVLTDYEYVILNILRFRTDEADDVKFAVRERYPLDHARAAEPLLTLERLTEIVASAPKGELLKRVLNPLLPYGPALIEHCLLENGFSGNVKVDEKLETKDIEKVLVSLQKAEDYMKTTSNFSGKGYIIQKREIKPSLEADKPVEDILTYEEFHPFLFSQHSQCPYIEFESFDKAVDEFYSKIEGQKIDLKALQQEKQALKKLDNVRKDHENRLEALQQAQEIDKLKGELIEMNLQIVDRAIQVVRSALANQIDWTEIGLIVKEAQAQGDPVASAIKELKLQTNHVTMLLRNPYLLSEEEDDDVDGDVNVEKNETEPPKGKKKKQKNKQLQKPQKNKPLLVDVDLSLSAYANAKKYYDHKRYAAKKTQKTVEAAEKAFKSAEKKTKQTLKEVQTVTSIQKARKVYWFEKFLWFISSENYLIIGGRDQQQNEIIVKRYLTPGDIYVHADLHGATSCVIKNPTGEPIPPRTLTEAGTMALCYSAAWDARVITSAWWVYHHQVSKTAPTGEYLTTGSFMIRGKKNFLPPSYLMMGFSFLFKVDESCVWRHQGERKVRVQDEDMETLASCTSELISEEMEQLDGGDTSSDEDKEEHETPVEVELMTQVDQEDITLQSGRDELNEELIQEESSEDEGEYEEVRKDQDSVGEMKDEGEETLNYPDTTIDLSHLQPQRSIQKLASKEESSNSSDSKSQSRRHLSAKERREMKKKKLPSDSGDLEALEGKDKEKESTVHIETHQNTSKNVAAVQPMKRGQKSKMKKMKEKYKDQDEEDRELIMKLLGSAGSNKEEKGKKGKKGKTKDEPVKKQPQKPRGGQRVSDNIKKETPFLEVITHELQDFAVDDPHDDKEEQDLDQQGNEENLFDSLTGQPHPEDVLLFAIPICAPYTTMTNYKYKVKLTPGVQKKGKAAKTALNSFMHSKEATAREKDLFRSVKDTDLSRNIPGKVKVSAPNLLNVKRK
binding [4]: binds

Results, then the molecule that gave them:

binding [1]: binds | binding [2]: binds | binding [3]: binds
Molecule: SKP1 (from UniProt P63208 1-163)

binding [4]: binds
B1: ZNF598 (protein, UniProt Q86UK7 1-904)
chain: MAAAGGAEGRRAALEAAAAAAPERGGGSCVLCCGDLEATALGRCDHPVCYRCSTKMRVLCEQRYCAVCREELRQVVFGKKLPAFATIPIHQLQHEKKYDIYFADGKVYALYRQLLQHECPRCPELPPFSLFGDLEQHMRRQHELFCCRLCLQHLQIFTYERKWYSRKDLARHRMQGDPDDTSHRGHPLCKFCDERYLDNDELLKHLRRDHYFCHFCDSDGAQDYYSDYAYLREHFREKHFLCEEGRCSTEQFTHAFRTEIDLKAHRTACHSRSRAEARQNRHIDLQFSYAPRHSRRNEGVVGGEDYEEVDRYSRQGRVARAGTRGAQQSRRGSWRYKREEEDREVAAAVRASVAAQQQEEARRSEDQEEGGRPKKEEAAARGPEDPRGPRRSPRTQGEGPGPKETSTNGPVSQEAFSVTGPAAPGCVGVPGALPPPSPKLKDEDFPSLSASTSSSCSTAATPGPVGLALPYAIPARGRSAFQEEDFPALVSSVPKPGTAPTSLVSAWNSSSSSKKVAQPPLSAQATGSGQPTRKAGKGSRGGRKGGPPFTQEEEEDGGPALQELLSTRPTGSVSSTLGLASIQPSKVGKKKKVGSEKPGTTLPQPPPATCPPGALQAPEAPASRAEGPVAVVVNGHTEGPAPARSAPKEPPGLPRPLGSFPCPTPQEDFPALGGPCPPRMPPPPGFSAVVLLKGTPPPPPPGLVPPISKPPPGFSGLLPSPHPACVPSPATTTTTKAPRLLPAPRAYLVPENFRERNLQLIQSIRDFLQSDEARFSEFKSHSGEFRQGLISAAQYYKSCRDLLGENFQKVFNELLVLLPDTAKQQELLSAHTDFCNREKPLSTKSKKNKKSAWQATTQQAGLDCRVCPTCQQVLAHGDASSHQALHAARDDDFPSLQAIARIIT
